Experimental data: article PMC12174100
These are yes or no findings as the source states them, for the method shown. In cells and extracts the contact can be indirect. Some results given as binding are weak or reduced against the parent protein; the word gives no strength.

Target: T1, Dual-specificity phosphatase 1 (DUSP1) (human (endogenous in U266 and RPMI-8226)) (UniProt P28562)
T1 sequence: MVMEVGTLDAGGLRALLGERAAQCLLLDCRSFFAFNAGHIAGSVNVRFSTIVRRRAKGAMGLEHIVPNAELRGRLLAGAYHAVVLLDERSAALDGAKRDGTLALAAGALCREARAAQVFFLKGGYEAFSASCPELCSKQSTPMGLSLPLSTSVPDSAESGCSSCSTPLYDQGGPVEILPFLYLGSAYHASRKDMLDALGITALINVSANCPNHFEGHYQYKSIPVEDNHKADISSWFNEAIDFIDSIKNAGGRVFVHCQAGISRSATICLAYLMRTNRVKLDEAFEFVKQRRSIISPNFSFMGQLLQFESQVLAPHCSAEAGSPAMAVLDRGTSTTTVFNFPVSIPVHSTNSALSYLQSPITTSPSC
Experiment: co-IP; Protein A/G magnetic bead immunoprecipitation kit; lysates of U266 and RPMI-8226 cells; antibody-bead complex incubated with the protein sample at 25°C; eluted with SDS-PAGE loading buffer, Western blot; different antibodies used for immunoprecipitation

binding: binds
B1: Sperm-associated antigen 6 (SPAG6) (protein, UniProt O75602 1-509)
chain: MSQRQVLQVFEQYQKARTQFVQMVAELATRPQNIETLQNAGVMSLLRTLLLDVVPTIQQTAALALGRLANYNDDLAEAVVKCDILPQLVYSLAEQNRFYKKAAAFVLRAVGKHSPQLAQAIVDCGALDTLVICLEDFDPGVKEAAAWALRYIARHNAELSQAVVDAGAVPLLVLCIQEPEIALKRIAASALSDIAKHSPELAQTVVDAGAVAHLAQMILNPDAKLKHQILSALSQVSKHSVDLAEMVVEAEIFPVVLTCLKDKDEYVKKNASTLIREIAKHTPELSQLVVNAGGVAAVIDCIGSCKGNTRLPGIMMLGYVAAHSENLAMAVIISKGVPQLSVCLSEEPEDHIKAAAAWALGQIGRHTPEHARAVAVTNTLPVLLSLYMSTESSEDLQVKSKKAIKNILQKCTYLPALEPFLYDAPPNILKHVVGQFSKVLPHDSKARRLFVTSGGLKKVQEIKAEPGSLLQEYINSINSCYPEEIVRYYSPGYSDTLLQRVDSYQPLNN
